Drawing on PubChem BioAssay AID1347426 (Functional Genomics Laboratory (NCATS/FGL), 2020), this text covers median seed-adjusted z-score for 107 sequences.

About 1,400 (4.5%) of roughly 31,000 sequences were called active.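 How the source made its calls: active means median seed-adjusted z-score above 1 or below -1; inactive means the rest.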 The list shows a part of the results.

The nature of the assay: Novel Modifiers of Survival Motor Neuron (SMN) Protein: Gene Identification via Genome-wide siRNA Screen.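 Further: luminescence tracks full-length SMN protein made from the SMN2 reporter.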 Particulars: HEK293T SMN2-luciferase reporter, siRNA knockdown, 72 h; actives lie on both sides. The essentials:
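HEK293T cells stably expressing an SMN2 splicing/cDNA-luciferase reporter were reverse-transfected with a druggable-genome siRNA library and read by luminescence at 72 hours; hits defined by MAD score above 1.0 or below -1.0.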
In general terms: Reporter assays use an easily measured gene product as a stand-in for the process of interest.
With GGCAUAAACUUCGACAAAUTT against DDX4, the median seed-adjusted z-score was inactive: -0.136.

For CCAAUGUCCCGGGAGUUUATT against PPM1J, the median seed-adjusted z-score was inactive: -0.901.

Turning to GACUAGUUGUGAUUUGCUATT against KCNE4, the median seed-adjusted z-score is inactive: 0.0795.

Turning to GCUGACUACUUGAAGUUCATT against DYRK1A, the median seed-adjusted z-score is active: -1.3.

In the case of GAUGAAGAGAGAUACGACATT against TNNI3, the median seed-adjusted z-score was inactive: 0.516.

With GCCUCUUCUUCGUCUUUGATT against ZDHHC18, the median seed-adjusted z-score is inactive: -0.309.

With GAAGCUUGGUGUUGCCUAUTT against ADAM20, the median seed-adjusted z-score was inactive: 0.0167.

Take GAAGGGAGCAUGUAGCUAATT against 7-Sep: the median seed-adjusted z-score was inactive: -0.00715.

As for CAACCUUUCUAGAAGUAGATT against SNTG1, the median seed-adjusted z-score was inactive: 0.167.

Take GGCUACCAAUAAAGAUACATT against LHCGR: the median seed-adjusted z-score is inactive: -0.152.

On to CCGUUUCCCACUUAACCAATT against FRRS1, for which the median seed-adjusted z-score was inactive: -0.4.

GAAUGAUACAUAGAAAAGATT against CAMK2N1: the median seed-adjusted z-score is inactive: 0.

CCUCUAUUCUUGCUCCUGUTT against AOAH: the median seed-adjusted z-score was inactive: -0.123.

As to UCCUGGAUGUUGAUCCUAATT against PSMC3, the median seed-adjusted z-score is inactive: -0.701.

Regarding GGCUUGUCGCGAAUCUUCATT against G6PC3, the median seed-adjusted z-score is inactive: -0.13.

On to CACUGCAAGUGGGUCAAUATT against ZDHHC19, for which the median seed-adjusted z-score is inactive: 0.0354.

For the sequence AACUCAGGCUGUACCUUGATT against MXD4, the median seed-adjusted z-score is inactive: 0.688.

As for GCAUUUGAGCAUGAAAAUATT against VPS29, the median seed-adjusted z-score is inactive: -0.408.

For GCUCUAACUGAACAACUAATT against EHMT2, the median seed-adjusted z-score is inactive: 0.295.

As to GAUAGACCUAAAUAGCACATT against GPR126, the median seed-adjusted z-score was inactive: -0.243.

Take CCUUUAGUCAUAGAGCGUATT against ZNF642: the median seed-adjusted z-score is inactive: 0.169.

Regarding GAUUCAUGCAUUGAUCACATT against UBE2Z, the median seed-adjusted z-score was inactive: 0.0572.

In the case of GUACAAAGCCCAUGGAUUUTT against SPNS3, the median seed-adjusted z-score is inactive: -0.00533.

Consider GCAAUAUAUAUGGAGAGGATT against TRIM48, for which the median seed-adjusted z-score is inactive: 0.

Turning to UUUACAAACUGGUAUGAUATT against AMY1A, the median seed-adjusted z-score is inactive: 0.272.

Consider CGUGUAUUCUUUCACUAAUTT against MFSD1, for which the median seed-adjusted z-score is inactive: -0.0833.

CAAGUUCACUGUUCGUGAATT against ATP6V1C2: the median seed-adjusted z-score was inactive: 0.2.

For the sequence GAAAGACGAGCUUUACCUATT against GSK3A, the median seed-adjusted z-score is inactive: 0.248.

Consider GGAACGGCAUAGCCCUAGATT against SIGLEC5, for which the median seed-adjusted z-score is inactive: -0.615.

Regarding GCUUCAUUAUUGGAAAUCUTT against SLC9A7, the median seed-adjusted z-score is inactive: 0.349.

With UACAAGUCCUCGCACCUAATT against KLF16, the median seed-adjusted z-score was inactive: 0.461.

As to CGUUAGCAUCAAGACGAAATT against RFWD2, the median seed-adjusted z-score is inactive: 0.662.

Regarding ACGUCUCUCCCAACACCAATT against KCNH2, the median seed-adjusted z-score is inactive: 0.1.

As to GGCUCAGUCAUUUGACAAATT against RGS20, the median seed-adjusted z-score is inactive: -0.34.

Regarding GAUCAAGUGACAUUGCUAATT against PPARA, the median seed-adjusted z-score was inactive: 0.113.

Consider AGACGAAACAGAUGGUUGATT against SPINK9, for which the median seed-adjusted z-score was inactive: 0.392.

For the sequence CAGUGUUAGUGCUAGUGAATT against SLC39A6, the median seed-adjusted z-score was inactive: -0.262.

Consider ACGGCGUGCUGAAAACAGATT against PRDX2, for which the median seed-adjusted z-score is inactive: -0.359.

Take GCAAGGACCCUAUCUUUGATT against ILDR1: the median seed-adjusted z-score is inactive: -0.318.

Regarding CAUUAAUGUGGGUGAUUUATT against TAF9, the median seed-adjusted z-score was inactive: 0.829.

GGACUUACCUAGAGGAGGATT against ITPKA: the median seed-adjusted z-score was inactive: -0.136.

Turning to CCAGGGAUUCUUCUGCUAUTT against LPPR2, the median seed-adjusted z-score was inactive: 0.255.

As to GAUGGGCAAUUUACAGUCATT against EPHA7, the median seed-adjusted z-score is inactive: -0.172.

Consider GGAACACCUUUAGUCAUGATT against ZNF790, for which the median seed-adjusted z-score was inactive: 0.245.

In the case of GGGUCUACGUGGAGCUCAATT against EPHB3, the median seed-adjusted z-score is inactive: -0.407.

In the case of CACUCGAAAUUUUGAAGCATT against CHD4, the median seed-adjusted z-score is inactive: 0.625.

GAAACUUCGUGAAUACUUUTT against CDYL: the median seed-adjusted z-score was inactive: 0.

In the case of CGUGUUCCGAGAAAACGAATT against PLEKHM2, the median seed-adjusted z-score is inactive: 0.593.

Consider CAGUCUGUAUUGUAUGGUUTT against KCNA4, for which the median seed-adjusted z-score was inactive: -0.634.

For the sequence CUGCAAAUCCUGUAAGUCUTT against FXYD7, the median seed-adjusted z-score is inactive: -0.0312.

As to GUACAACCACUGCUCCGAATT against SLC22A18, the median seed-adjusted z-score is inactive: -0.654.

As for GGAGGAAAAGUGCUACGAATT against MEGF8, the median seed-adjusted z-score is inactive: 0.0906.

For ACUCGAAUCCAAACCCUCATT against SLC25A18, the median seed-adjusted z-score was inactive: -0.0227.

Take AGAUGGACAUCUUGCAGUATT against HS1BP3: the median seed-adjusted z-score is inactive: 0.418.

Regarding CAAUCCAACUAGUAGUUCATT against SP4, the median seed-adjusted z-score was inactive: -0.088.

With GGGUAUUCUGGGCAUGAAATT against NANS, the median seed-adjusted z-score was active: -1.54.

In the case of UGACAGCAGUGAGUGCAAATT against ESM1, the median seed-adjusted z-score was inactive: 0.141.

Regarding GGUGUUGUCCGUCUGCUCATT against THA1P, the median seed-adjusted z-score was inactive: -0.509.

GGCUCUGCGAACAUCAAUATT against CLTC: the median seed-adjusted z-score was inactive: -0.0662.

As for GAAUUAGCAGUGUACAUGATT against SLC30A10, the median seed-adjusted z-score was inactive: 0.523.

For the sequence GGCACUAAGUUUGACCGGATT against AQR, the median seed-adjusted z-score was active: -1.56.

Take CCCUAUAUUUCAAACAUCUTT against PLOD1: the median seed-adjusted z-score was inactive: 0.481.

Take GCAUGACUGUACCCAUGAATT against SLC3A1: the median seed-adjusted z-score was inactive: -0.33.

As to CCUCGCAACUGGAAAGACATT against ATP2C1, the median seed-adjusted z-score is inactive: -0.112.

As to CCAUGUACCUUGAAGUGCATT against NCAM1, the median seed-adjusted z-score is inactive: 0.

AGAAACCACUCUUUAAGAATT against ABCF1: the median seed-adjusted z-score is inactive: -0.221.

In the case of CCCUCACACUAAUAGAACATT against SLAMF7, the median seed-adjusted z-score is inactive: -0.478.

With CCGGGUUAAUUACCACCUUTT against MTHFR, the median seed-adjusted z-score was inactive: 0.

GAAAGCAACUGACACUCUUTT against ATP2C2: the median seed-adjusted z-score was inactive: -0.302.

Take CUAGGAAGAUAAUACCAGATT against BTRC: the median seed-adjusted z-score is inactive: -0.0819.

AGUGGAUUAUGGAUCUCCATT against TXNL4B: the median seed-adjusted z-score is inactive: 0.762.

Take GGAUUACGCCCUCUUCACATT against NPHS1: the median seed-adjusted z-score was inactive: -0.0505.

Turning to GAAUAGGCACUGUUACUUUTT against HNRNPM, the median seed-adjusted z-score is inactive: 0.499.

In the case of GGAAAAUCAAUAUAUCACUTT against ADH6, the median seed-adjusted z-score is inactive: -0.132.

CGAGCAUUAAUUAAUGAUATT against GPR137C: the median seed-adjusted z-score is inactive: -0.405.

Take GCUAAUGACAAAUCGCUCATT against MSH4: the median seed-adjusted z-score is inactive: 0.

Consider CCACCUGUACAGCACGGUATT against TGFB1I1, for which the median seed-adjusted z-score is inactive: 0.887.

Regarding CGGGAUAAUUUUGACAAGATT against NXF2, the median seed-adjusted z-score is inactive: -0.0513.

GAAAUUGAAAUGCACUCUATT against KDSR: the median seed-adjusted z-score was inactive: -0.108.

Take CCACAGACCUUGUGACCGATT against ZNF746: the median seed-adjusted z-score was inactive: 0.1.

For GCUCACGAUUUGUUACACUTT against C5AR1, the median seed-adjusted z-score is inactive: 0.366.

Take ACAUGGUCCAAUCCUCCUATT against FBP2: the median seed-adjusted z-score is inactive: 0.

In the case of GGACUAAUGUUACACCAAUTT against KLHL12, the median seed-adjusted z-score was inactive: -0.0991.

For the sequence GGACUUGAAUUGACUAGUUTT against SSH2, the median seed-adjusted z-score was inactive: 0.357.

As to GGUGGUGAGUUGUUCAGCATT against MAPKAPK3, the median seed-adjusted z-score was inactive: -0.506.

Take GGAGCAUUGAUAUACGUCATT against RRAGC: the median seed-adjusted z-score is inactive: -0.557.

Take GUAUGGAUCUGAACUAGAUTT against TPH1: the median seed-adjusted z-score is inactive: -0.055.

Regarding GGACUUCUAUGAAGGGCAATT against UPP1, the median seed-adjusted z-score is inactive: -0.135.

For the sequence GCCUGUCUGCUCUACGAAATT against APOBEC1, the median seed-adjusted z-score is inactive: -0.323.

Turning to GGACUACGCUGCAAUUAGATT against RALA, the median seed-adjusted z-score was inactive: 0.553.

On to AGACGGCCGUCAUGACGAATT against MATK, for which the median seed-adjusted z-score was inactive: -0.754.

For the sequence GGAAGAUACCUGGAGGUUUTT against LILRB3, the median seed-adjusted z-score is inactive: 0.0304.

GGUGUAUUGGAGUCACAAATT against PTGFR: the median seed-adjusted z-score is inactive: 0.

With GAGAAAGUGUGAACUUACATT against XRCC2, the median seed-adjusted z-score is inactive: 0.

With CCAUGGGAGCUAUUGAUUUTT against GPLD1, the median seed-adjusted z-score was inactive: 0.0152.

For the sequence AAGCGAAACUGUCAGAGGATT against RAX, the median seed-adjusted z-score is inactive: -0.176.

On to GACCAAAGAUGGAUUAAUATT against SLC25A13, for which the median seed-adjusted z-score was inactive: 0.00924.

For the sequence GCUUGAUAGAGUUAUGAUATT against TIGD2, the median seed-adjusted z-score was inactive: -0.13.

For the sequence CCCGUGAGGUUGUCAAUAATT against NDUFS7, the median seed-adjusted z-score was inactive: -0.386.

For CAGGAACCGUGUGGAUACATT against NDUFB8, the median seed-adjusted z-score is inactive: -0.468.

For the sequence GGUGAGCACCGGCAACUAUTT against PICK1, the median seed-adjusted z-score is inactive: -0.136.

Take CAUCAACUAUGGGAUAAUATT against SLC17A2: the median seed-adjusted z-score was inactive: 0.141.

Turning to GACUACCUGAGAUCACUAATT against RAD52, the median seed-adjusted z-score was inactive: -0.737.

With GAUGAAAACCCUACAGUUUTT against GPR55, the median seed-adjusted z-score is inactive: -0.114.

Consider GGUUUGAAAUUCUAACAAATT against TXNDC6, for which the median seed-adjusted z-score is inactive: 0.156.

As for GUGACCAUAUCGUCGAUUATT against PCDHB14, the median seed-adjusted z-score is inactive: -0.229.

With GAUUACAACCUGUAUCGAATT against THOC1, the median seed-adjusted z-score is active: -3.04.
